# Assay results taken from patent US20080031893A1 (Metaproteomics, LLC, priority 2006, published 2008).
# At least one compound was matched to its structure with a doubt left.
# System: NF-κB
# Experiment: NF-κB DNA binding (TransAM) in nuclear extracts of LPS-stimulated RAW 264.7 cells
# Assay type: cell-based, murine
# Details: LPS 4 h
smiles,measurement,value
O=c1cc(N2CCOCC2)oc2c(-c3ccccc3)cccc12 [LY294002],NF-κB DNA binding,modest decrease
